Results taken from patent publication US20230047208A1, “RNA Splicing Modulation” (The General Hospital Corporation, priority 2020, published 2023).
The source gives many values for each of these; only a part stands here.

Tested on: wildtype (WT) human fibroblast cell lines
Assay: Transcriptome-wide splicing by RNA sequencing (RNASeq), exon triplet PSI change;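 on Effect: six WT fibroblast lines treated seven days versus DMSO vehicle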;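 on T-PSI: T-PSI is average treated PSI after seven days of treatment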
Type: cell-based
Design: key to Effect: Exclusion; Inclusion; Unchanged
Conditions: seven days
From the text: FIG. 2A provides a representation of an exon triplet. Exon U is upstream of Exon X, which is upstream of Exon D. R1, R2 and R3 represent RNA sequencing (RNASeq) reads spanning the regions between two adjacent exons. UI1, I1X, XI2 and I2D are four regions flanking the four splice sites of the exon-triplet. Each flanking region consists of 25 exonic base pairs and 75 intronic base pairs.
FIG. 2B provides a volcano plot showing the ψ (PSI: Percent Spliced-In) changes in splicing after treatment with Compound (I). Each dot represents one of the 161,097 expressed exon triplets in human fibroblasts. The x axis represents the ψ changes after treatment and the y axis represents the False Discovery Rate (FDR) (log 10 transformed). […] The horizontal dashed line indicates an FDR of 0.1. The dots on the right side of the right vertical dashed line and above the horizontal dashed line represent the exon-triplets with an increase for Exon X inclusion (Δψ≥0.1 and FDR<0.1) while the dots on left side of the left vertical dashed line and above the horizontal dashed line represent an increase for Exon X exclusion (Δψ≤−0.1 and FDR<0.1). Black dots in-between the two vertical dashed lines represent exon-triplets unchanged from the treatment.
In some aspects, analysis is performed on data derived from the assay to measure the magnitude of splicing to determine the amount of exons spliced into an mRNA transcript that is produced in the presence of Compound (I) relative to the amount in the absence of Compound (I) or presence of a negative control. In a preferred aspect, the method utilized is calculation of change in Percent Spliced In (ΔPSI). […] The ΔPSI value is derived from the formula: […]
The values for “a” and “b” represent the number of reads supporting the probability for potential inclusion or exclusion of an exon in an RNA transcript. The “a” value is derived from the number of reads within an exon triplet covering, in 5′ to 3′ order: the last few bases (>1 nucleotide) of an upstream exon operably linked to the first few bases (>1 nucleotide) of a middle exon. The “b” value is derived from the number of reads within an exon triplet covering, in 5′ to 3′ order: the last few bases (>1 nucleotide) of the middle exon operably linked to the first few bases (>1 nucleotide) of a downstream exon. The number of reads will indicate whether the splice junction of a middle exon has been identified as potentially having a CNN Motif(s) by the CNN Model described herein, wherein the inclusion or exclusion of the middle exon may be modulated in the presence of Compound (I) to produce one or more mature RNA isoforms from the gene transcript. The value for “c” represents the number of reads supporting the exclusion of the middle exon.
The effect on splicing modulation and corresponding splice differences toward exon inclusion or exclusion was determined by counting the RNASeq reads covering two splice junctions of exon triplets (three consecutive exons: Exon U, Exon X, Exon D) and the corresponding intervening introns, then comparing the change in Percent Spliced In (ΔPSI or Δψ) of the middle exon (Exon X) after treatment (as shown in FIG. 2A)^52,53. 934 exon triplets were identified showing differential middle exon inclusion or exclusion in response to Compound (I) treatment. Of these, 254 were exon inclusion events (Δψ≥0.1 and FDR<0.1) and 680 were exon exclusion events (Δψ≤−0.1 and FDR<0.1) (as shown in FIG. 2B). […] The splicing results were evaluated by RT-PCR in independent replicate experiments, confirming all the calculated Δψ values. […]

[1] = SH3D19 Exon 152065372-152065440
[2] = SLC9B2 Exon 103949904-103950040
[3] = SLC15A4 Exon 129294488-129294598
[4] = SLC22A17 Exon 23816723-23816940
[5] = SLC25A17 Exon 41188529-41188680
[6] = SLC25A17 Exon 41190518-41190584
[7] = SLC25A32 Exon 104417004-104417089
[8] = SLC25A36 Exon 140685776-140685878
[9] = SLC25A36 Exon 140685842-140685878
[10] = SLC35A3 Exon 100440527-100440625
[11] = SLC37A3 Exon 140045669-140045770

Which results are given for Clc1nc(NCc2ccncc2)c2cc[nH]c2n1 [Compound (I), 2-chloro-N-(pyridin-4-ylmethyl)-7H-pyrrolo[2,3-d]pyrimidin-4-amine]?
T-PSI (SETD5 Exon 9476274-9476314): 0.138; ΔPSI (SETD5 Exon 9476274-9476314): −0.190; Effect (SETX Exon 135144790-135144876): Inc; T-PSI (SETX Exon 135144790-135144876): 0.466; ΔPSI (SETX Exon 135144790-135144876): 0.150; Effect (SEZ6L2 Exon 29884026-29884064): Unc; T-PSI (SEZ6L2 Exon 29884026-29884064): 0.582; ΔPSI (SEZ6L2 Exon 29884026-29884064): 0.010; Effect (SFXN4 Exon 120920567-120920593): Exc; T-PSI (SFXN4 Exon 120920567-120920593): 0.812; ΔPSI (SFXN4 Exon 120920567-120920593): −0.188; Effect (SGSM2 Exon 2270565-2270699): Unc; T-PSI (SGSM2 Exon 2270565-2270699): 0.317; ΔPSI (SGSM2 Exon 2270565-2270699): 0.005; Effect (SGSM3 Exon 40797597-40797679): Exc; T-PSI (SGSM3 Exon 40797597-40797679): 0.494; ΔPSI (SGSM3 Exon 40797597-40797679): −0.290; Effect [1]: Inc; T-PSI [1]: 0.620; ΔPSI [1]: 0.143; Effect (SHMT2 Exon 57625264-57625343): Exc; T-PSI (SHMT2 Exon 57625264-57625343): 0.754; ΔPSI (SHMT2 Exon 57625264-57625343): −0.138; Effect (SIKE1 Exon 115322731-115322836): Unc; T-PSI (SIKE1 Exon 115322731-115322836): 0.891; ΔPSI (SIKE1 Exon 115322731-115322836): −0.005; Effect (SIPA1L1 Exon 71867511-71867635): Exc; T-PSI (SIPA1L1 Exon 71867511-71867635): 0.000; ΔPSI (SIPA1L1 Exon 71867511-71867635): −0.241; Effect (SIPA1L1 Exon 71880665-71880731): Inc; T-PSI (SIPA1L1 Exon 71880665-71880731): 0.986; ΔPSI (SIPA1L1 Exon 71880665-71880731): 0.377; Effect (SLAIN2 Exon 48396593-48396670): Unc; T-PSI (SLAIN2 Exon 48396593-48396670): 0.717; ΔPSI (SLAIN2 Exon 48396593-48396670): −0.009; Effect (SLC4A7 Exon 27450847-27451021): Exc; T-PSI (SLC4A7 Exon 27450847-27451021): 0.378; ΔPSI (SLC4A7 Exon 27450847-27451021): −0.426; Effect (SLC5A6 Exon 27429351-27429402): Exc; T-PSI (SLC5A6 Exon 27429351-27429402): 0.763; ΔPSI (SLC5A6 Exon 27429351-27429402): −0.174; Effect (SLC7A6 Exon 68307721-68307807): Exc; T-PSI (SLC7A6 Exon 68307721-68307807): 0.312; ΔPSI (SLC7A6 Exon 68307721-68307807): −0.230; Effect (SLC7A6 Exon 68307725-68307807): Exc; T-PSI (SLC7A6 Exon 68307725-68307807): 0.224; ΔPSI (SLC7A6 Exon 68307725-68307807): −0.205; Effect [2]: Exc; T-PSI [2]: 0.553; ΔPSI [2]: −0.322; Effect [3]: Inc; T-PSI [3]: 0.982; ΔPSI [3]: 0.113; Effect [4]: Exc; T-PSI [4]: 0.684; ΔPSI [4]: −0.171; Effect [5]: Exc; T-PSI [5]: 0.772; ΔPSI [5]: −0.197; Effect [6]: Exc; T-PSI [6]: 0.769; ΔPSI [6]: −0.197; Effect [7]: Exc; T-PSI [7]: 0.801; ΔPSI [7]: −0.134; Effect [8]: Exc; T-PSI [8]: 0.096; ΔPSI [8]: −0.230; Effect [9]: Exc; T-PSI [9]: 0.073; ΔPSI [9]: −0.201; Effect (SLC30A6 Exon 32422413-32422461): Unc; T-PSI (SLC30A6 Exon 32422413-32422461): 0.790; ΔPSI (SLC30A6 Exon 32422413-32422461): 0.009; Effect (SLC35A1 Exon 88187080-88187257): Exc; T-PSI (SLC35A1 Exon 88187080-88187257): 0.760; ΔPSI (SLC35A1 Exon 88187080-88187257): −0.194; Effect [10]: Inc; T-PSI [10]: 0.613; ΔPSI [10]: 0.237; Effect (SLC35D2 Exon 99084280-99084362): Exc; T-PSI (SLC35D2 Exon 99084280-99084362): 0.841; ΔPSI (SLC35D2 Exon 99084280-99084362): −0.136; Effect [11]: Exc; T-PSI [11]: 0.548; ΔPSI [11]: −0.241; Effect (SLC38A2 Exon 46764295-46764410): Exc; T-PSI (SLC38A2 Exon 46764295-46764410): 0.748; ΔPSI (SLC38A2 Exon 46764295-46764410): −0.154; Effect (SLC38A6 Exon 61510168-61510221): Exc; T-PSI (SLC38A6 Exon 61510168-61510221): 0.653; ΔPSI (SLC38A6 Exon 61510168-61510221): −0.212; Effect (SLC38A6 Exon 61514869-61515015): Inc; T-PSI (SLC38A6 Exon 61514869-61515015): 0.190; ΔPSI (SLC38A6 Exon 61514869-61515015): 0.157; Effect (SLC38A6 Exon 61517230-61517354): Exc; T-PSI (SLC38A6 Exon 61517230-61517354): 0.717; ΔPSI (SLC38A6 Exon 61517230-61517354): −0.271; Effect (SLC38A9 Exon 54998567-54998722): Unc; T-PSI (SLC38A9 Exon 54998567-54998722): 0.116; ΔPSI (SLC38A9 Exon 54998567-54998722): −0.009; Effect (SLC39A9 Exon 69908786-69908983): Unc; T-PSI (SLC39A9 Exon 69908786-69908983): 0.883; ΔPSI (SLC39A9 Exon 69908786-69908983): 0.004; Effect (SLFN11 Exon 33693966-33694062): Unc; T-PSI (SLFN11 Exon 33693966-33694062): 0.836; ΔPSI (SLFN11 Exon 33693966-33694062): −0.007; Effect (SLFN11 Exon 33693966-33694082): Unc; T-PSI (SLFN11 Exon 33693966-33694082): 0.836; ΔPSI (SLFN11 Exon 33693966-33694082): −0.006; Effect (SLIT2 Exon 20550111-20550182): Exc; T-PSI (SLIT2 Exon 20550111-20550182): 0.748; ΔPSI (SLIT2 Exon 20550111-20550182): −0.163; Effect (SLMAP Exon 57857363-57857425): Exc; T-PSI (SLMAP Exon 57857363-57857425): 0.339; ΔPSI (SLMAP Exon 57857363-57857425): −0.267
